From the supplement of paper PMC12823440, “Inhibitors supercharge kinase turnover through native proteolytic circuits” (Nature, 2025)
Some of the results follow. Hit calls seldom repeat between salt and free forms of one compound.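 Kinases were expressed as nanoluciferase fusions in K562 cells and luminescence was read every 4 h between 2 and 18 h as percent of control, DMSO set to 100% and a positive control to 0%. A time point counts as decreased when the signal drops significantly (2 sigma). The hit call is the authors' own, does not follow from the count of time points alone, and its rule is not shown.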

By UniProt entry, the sequences of proteins in these tests, tags left out. Where a name states a change or a piece, a line headed by the entry shows the natural chain unless it says otherwise.
UniProt Q9UQM7, whole entry: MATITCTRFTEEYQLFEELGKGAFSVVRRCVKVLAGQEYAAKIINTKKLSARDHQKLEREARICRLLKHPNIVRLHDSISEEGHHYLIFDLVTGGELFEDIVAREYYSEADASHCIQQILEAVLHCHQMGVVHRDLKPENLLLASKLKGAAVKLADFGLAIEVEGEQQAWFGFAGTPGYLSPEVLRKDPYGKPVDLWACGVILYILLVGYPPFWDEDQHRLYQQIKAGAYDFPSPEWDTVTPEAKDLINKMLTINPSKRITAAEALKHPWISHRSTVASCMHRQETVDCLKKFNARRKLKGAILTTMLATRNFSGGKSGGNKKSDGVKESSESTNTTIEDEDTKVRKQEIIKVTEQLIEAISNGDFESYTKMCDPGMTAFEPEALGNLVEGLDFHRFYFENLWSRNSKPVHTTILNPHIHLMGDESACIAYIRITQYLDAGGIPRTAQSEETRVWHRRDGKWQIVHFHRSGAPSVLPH
UniProt Q13555: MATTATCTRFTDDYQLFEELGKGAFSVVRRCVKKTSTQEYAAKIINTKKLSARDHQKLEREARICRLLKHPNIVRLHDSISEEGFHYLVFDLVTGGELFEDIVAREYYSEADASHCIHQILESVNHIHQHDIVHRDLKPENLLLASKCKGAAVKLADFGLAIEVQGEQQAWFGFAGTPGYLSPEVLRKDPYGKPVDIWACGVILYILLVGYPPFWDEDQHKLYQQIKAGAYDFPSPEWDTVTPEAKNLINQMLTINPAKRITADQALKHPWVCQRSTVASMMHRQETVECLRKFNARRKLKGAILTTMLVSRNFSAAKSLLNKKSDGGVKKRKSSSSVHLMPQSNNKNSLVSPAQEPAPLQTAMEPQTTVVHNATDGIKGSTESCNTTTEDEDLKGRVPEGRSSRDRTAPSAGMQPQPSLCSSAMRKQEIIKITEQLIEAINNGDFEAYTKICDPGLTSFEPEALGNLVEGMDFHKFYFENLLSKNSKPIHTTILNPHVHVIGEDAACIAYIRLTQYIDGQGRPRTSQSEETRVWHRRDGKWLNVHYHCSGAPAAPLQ
UniProt Q15131: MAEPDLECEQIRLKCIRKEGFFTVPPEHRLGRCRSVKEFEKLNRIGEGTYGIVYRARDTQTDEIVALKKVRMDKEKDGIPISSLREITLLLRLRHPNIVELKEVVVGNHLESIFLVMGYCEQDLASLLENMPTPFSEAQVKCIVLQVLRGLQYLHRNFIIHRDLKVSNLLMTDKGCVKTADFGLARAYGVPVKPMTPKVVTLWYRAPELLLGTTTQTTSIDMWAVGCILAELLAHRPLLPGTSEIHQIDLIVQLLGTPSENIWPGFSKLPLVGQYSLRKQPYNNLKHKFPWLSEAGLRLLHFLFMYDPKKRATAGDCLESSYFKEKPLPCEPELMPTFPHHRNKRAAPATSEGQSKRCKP
UniProt Q00535, whole entry, looked up: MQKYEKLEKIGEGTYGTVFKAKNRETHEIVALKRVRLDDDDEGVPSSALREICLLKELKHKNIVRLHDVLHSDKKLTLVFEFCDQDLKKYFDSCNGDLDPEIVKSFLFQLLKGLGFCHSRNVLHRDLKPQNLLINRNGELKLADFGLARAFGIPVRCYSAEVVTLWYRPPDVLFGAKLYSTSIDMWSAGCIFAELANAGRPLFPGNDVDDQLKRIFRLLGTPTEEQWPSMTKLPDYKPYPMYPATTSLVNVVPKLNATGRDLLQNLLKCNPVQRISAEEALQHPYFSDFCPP
UniProt Q00534, whole entry: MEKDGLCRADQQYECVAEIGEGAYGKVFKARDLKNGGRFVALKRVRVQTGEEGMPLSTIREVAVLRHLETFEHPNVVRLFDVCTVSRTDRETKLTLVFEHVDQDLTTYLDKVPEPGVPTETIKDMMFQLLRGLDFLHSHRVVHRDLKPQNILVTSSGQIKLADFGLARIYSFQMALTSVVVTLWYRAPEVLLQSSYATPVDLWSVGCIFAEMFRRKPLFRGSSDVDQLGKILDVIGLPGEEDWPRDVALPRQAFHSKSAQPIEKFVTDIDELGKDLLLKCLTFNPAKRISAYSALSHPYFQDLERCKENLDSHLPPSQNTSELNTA
UniProt O96017, whole entry: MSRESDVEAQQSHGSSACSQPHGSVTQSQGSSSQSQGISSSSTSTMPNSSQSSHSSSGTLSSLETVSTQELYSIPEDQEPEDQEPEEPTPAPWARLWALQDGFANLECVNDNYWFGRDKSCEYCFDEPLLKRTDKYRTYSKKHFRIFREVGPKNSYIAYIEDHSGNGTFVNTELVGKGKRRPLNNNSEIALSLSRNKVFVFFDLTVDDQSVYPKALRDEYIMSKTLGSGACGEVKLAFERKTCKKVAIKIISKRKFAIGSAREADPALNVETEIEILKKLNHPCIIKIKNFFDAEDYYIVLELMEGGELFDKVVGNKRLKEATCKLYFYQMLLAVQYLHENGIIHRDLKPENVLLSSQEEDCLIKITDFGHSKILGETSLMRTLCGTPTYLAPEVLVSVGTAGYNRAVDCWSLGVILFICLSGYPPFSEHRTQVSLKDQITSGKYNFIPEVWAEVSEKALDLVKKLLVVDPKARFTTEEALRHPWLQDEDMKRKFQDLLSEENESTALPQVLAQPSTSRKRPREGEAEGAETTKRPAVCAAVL
UniProt P07333, whole entry: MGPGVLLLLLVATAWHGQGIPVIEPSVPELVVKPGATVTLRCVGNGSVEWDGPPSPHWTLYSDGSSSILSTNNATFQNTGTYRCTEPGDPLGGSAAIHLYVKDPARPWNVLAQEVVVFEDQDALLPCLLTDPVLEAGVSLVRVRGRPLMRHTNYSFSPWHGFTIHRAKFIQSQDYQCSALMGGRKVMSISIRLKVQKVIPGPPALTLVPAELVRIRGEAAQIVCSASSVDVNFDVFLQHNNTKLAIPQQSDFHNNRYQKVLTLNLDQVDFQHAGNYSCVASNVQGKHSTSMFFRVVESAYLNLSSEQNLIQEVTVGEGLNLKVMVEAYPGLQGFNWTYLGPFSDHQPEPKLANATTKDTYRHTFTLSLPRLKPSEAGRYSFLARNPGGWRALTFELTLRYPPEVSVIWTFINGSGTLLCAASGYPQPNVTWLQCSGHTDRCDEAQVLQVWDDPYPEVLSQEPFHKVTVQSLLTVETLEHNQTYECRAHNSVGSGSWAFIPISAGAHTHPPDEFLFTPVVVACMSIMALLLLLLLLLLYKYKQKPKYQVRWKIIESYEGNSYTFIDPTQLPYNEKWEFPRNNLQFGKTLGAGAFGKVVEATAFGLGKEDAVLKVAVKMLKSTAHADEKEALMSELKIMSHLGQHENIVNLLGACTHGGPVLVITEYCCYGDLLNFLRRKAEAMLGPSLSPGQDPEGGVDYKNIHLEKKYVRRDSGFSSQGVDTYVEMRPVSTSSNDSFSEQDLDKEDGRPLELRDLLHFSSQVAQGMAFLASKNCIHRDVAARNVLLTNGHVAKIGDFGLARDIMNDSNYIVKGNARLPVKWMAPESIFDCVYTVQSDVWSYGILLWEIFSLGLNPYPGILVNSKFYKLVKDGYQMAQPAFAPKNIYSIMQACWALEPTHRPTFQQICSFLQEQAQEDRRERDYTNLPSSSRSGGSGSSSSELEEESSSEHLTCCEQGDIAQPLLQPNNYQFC
UniProt P41240: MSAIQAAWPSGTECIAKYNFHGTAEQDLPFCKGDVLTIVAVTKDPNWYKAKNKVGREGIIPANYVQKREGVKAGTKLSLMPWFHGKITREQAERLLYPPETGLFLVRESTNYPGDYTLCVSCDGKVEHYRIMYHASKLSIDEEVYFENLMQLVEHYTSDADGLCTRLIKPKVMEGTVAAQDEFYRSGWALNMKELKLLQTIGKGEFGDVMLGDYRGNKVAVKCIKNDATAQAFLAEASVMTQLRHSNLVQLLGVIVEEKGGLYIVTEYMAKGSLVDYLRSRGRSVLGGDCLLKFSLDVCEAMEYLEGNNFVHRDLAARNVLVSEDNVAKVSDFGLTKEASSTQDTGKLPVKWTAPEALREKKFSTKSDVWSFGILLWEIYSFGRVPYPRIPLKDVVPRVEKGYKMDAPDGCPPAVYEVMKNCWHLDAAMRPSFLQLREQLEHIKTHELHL
UniProt P48730: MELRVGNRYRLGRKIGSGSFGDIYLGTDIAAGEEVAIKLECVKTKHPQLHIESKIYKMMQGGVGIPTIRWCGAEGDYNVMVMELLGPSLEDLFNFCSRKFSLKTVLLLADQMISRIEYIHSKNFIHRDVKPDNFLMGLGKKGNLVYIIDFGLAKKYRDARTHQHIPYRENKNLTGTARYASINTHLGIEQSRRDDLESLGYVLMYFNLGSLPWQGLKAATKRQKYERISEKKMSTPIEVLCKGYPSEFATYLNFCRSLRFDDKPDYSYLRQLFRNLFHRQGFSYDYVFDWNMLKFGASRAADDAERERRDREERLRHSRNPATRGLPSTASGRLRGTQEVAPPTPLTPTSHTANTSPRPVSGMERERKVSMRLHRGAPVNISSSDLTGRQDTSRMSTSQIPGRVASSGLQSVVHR
UniProt Q9Y463, whole entry, looked up: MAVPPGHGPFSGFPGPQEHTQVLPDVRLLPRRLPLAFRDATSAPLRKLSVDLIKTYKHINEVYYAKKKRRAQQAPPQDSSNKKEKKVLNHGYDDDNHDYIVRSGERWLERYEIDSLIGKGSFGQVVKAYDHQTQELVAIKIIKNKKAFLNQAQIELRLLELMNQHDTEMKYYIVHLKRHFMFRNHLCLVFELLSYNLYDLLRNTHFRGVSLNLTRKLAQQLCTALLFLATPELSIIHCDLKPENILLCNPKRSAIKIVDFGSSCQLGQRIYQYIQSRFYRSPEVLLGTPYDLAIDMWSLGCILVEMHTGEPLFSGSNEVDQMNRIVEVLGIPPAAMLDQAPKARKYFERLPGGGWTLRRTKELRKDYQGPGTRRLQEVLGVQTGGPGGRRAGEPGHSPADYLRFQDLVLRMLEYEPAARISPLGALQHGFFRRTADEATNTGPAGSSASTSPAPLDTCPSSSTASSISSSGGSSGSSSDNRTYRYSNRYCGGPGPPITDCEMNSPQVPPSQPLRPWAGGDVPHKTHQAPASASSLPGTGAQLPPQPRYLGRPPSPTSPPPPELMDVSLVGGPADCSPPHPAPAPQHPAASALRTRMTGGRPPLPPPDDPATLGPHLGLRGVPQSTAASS
UniProt Q92630: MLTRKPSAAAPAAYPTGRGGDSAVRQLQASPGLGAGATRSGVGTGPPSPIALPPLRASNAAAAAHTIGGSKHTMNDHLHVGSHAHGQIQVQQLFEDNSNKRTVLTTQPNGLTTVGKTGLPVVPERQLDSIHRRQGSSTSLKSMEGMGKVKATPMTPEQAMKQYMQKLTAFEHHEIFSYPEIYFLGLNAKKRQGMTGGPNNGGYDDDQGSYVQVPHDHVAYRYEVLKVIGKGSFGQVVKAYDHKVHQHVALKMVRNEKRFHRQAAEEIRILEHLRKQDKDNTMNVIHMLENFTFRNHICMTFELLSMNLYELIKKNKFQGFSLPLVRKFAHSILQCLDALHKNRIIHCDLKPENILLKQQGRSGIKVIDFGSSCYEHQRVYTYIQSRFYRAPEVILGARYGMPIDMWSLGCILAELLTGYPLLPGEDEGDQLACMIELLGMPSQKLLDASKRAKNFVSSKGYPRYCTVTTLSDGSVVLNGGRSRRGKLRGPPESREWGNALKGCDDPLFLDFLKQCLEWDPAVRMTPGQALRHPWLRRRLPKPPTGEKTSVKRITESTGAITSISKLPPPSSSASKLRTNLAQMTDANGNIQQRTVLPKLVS
UniProt Q08345: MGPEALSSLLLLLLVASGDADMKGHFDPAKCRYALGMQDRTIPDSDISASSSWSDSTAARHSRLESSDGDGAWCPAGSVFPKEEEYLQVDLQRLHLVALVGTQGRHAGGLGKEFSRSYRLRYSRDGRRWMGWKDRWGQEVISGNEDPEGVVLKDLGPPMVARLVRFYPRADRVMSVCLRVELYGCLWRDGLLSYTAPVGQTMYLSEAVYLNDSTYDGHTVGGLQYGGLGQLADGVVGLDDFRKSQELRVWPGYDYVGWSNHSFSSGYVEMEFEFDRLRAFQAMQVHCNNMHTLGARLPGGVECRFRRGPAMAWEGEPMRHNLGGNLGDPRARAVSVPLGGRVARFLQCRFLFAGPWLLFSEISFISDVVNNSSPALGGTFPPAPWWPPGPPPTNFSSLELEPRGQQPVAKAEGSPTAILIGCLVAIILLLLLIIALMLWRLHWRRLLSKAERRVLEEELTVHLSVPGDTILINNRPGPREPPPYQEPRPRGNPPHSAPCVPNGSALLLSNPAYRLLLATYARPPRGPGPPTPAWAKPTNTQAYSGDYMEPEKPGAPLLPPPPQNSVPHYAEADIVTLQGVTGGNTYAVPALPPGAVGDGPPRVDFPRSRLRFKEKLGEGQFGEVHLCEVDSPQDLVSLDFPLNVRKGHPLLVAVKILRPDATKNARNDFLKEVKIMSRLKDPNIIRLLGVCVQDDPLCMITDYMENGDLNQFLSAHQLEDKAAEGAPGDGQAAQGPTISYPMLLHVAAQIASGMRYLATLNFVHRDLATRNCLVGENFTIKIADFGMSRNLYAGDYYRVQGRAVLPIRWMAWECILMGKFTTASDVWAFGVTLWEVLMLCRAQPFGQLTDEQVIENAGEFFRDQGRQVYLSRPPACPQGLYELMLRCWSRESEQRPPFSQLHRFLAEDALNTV

Assays:
Assay in all cases: number of time points (of 5) at which kinase-Nluc abundance scored as decreased, DMSO-normalised (count); higher = more persistent destabilization
Conditions in all cases: K562; 2-18 h
CAMK2A = CAMK2A (UniProt Q9UQM7)
CAMK2G = CAMK2G (UniProt Q13555)
CDK10 = CDK10 (UniProt Q15131)
CDK2 = CDK2 (UniProt P24941)
CDK3 = CDK3 (UniProt Q00526)
CDK5 = CDK5 (UniProt Q00535)
CDK6 = CDK6 (UniProt Q00534)
CHEK2 = CHEK2 (UniProt O96017)
CSF1R = CSF1R (UniProt P07333)
CSK = CSK (UniProt P41240)
CSNK1A1 = CSNK1A1 (UniProt P48729)
CSNK1D = CSNK1D (UniProt P48730)
DYRK1B = DYRK1B (UniProt Q9Y463)
DYRK2 = DYRK2 (UniProt Q92630)
EGFR = EGFR (UniProt P00533)
EGFR_G719S = EGFR_G719S (UniProt P00533)
EGFR_G719S_T790M = EGFR_G719S_T790M (UniProt P00533)
EGFR_L718V = EGFR_L718V (UniProt P00533)
EGFR_L858R = EGFR_L858R (UniProt P00533)
DDR1 = DDR1 (UniProt Q08345)

Measured: number of time points

CNC(=O)c1cccc(-c2ccc3c(N4CCOC[C@@H]4C)nc(N4CCOC[C@@H]4C)nc3n2)c1 [Vistusertib] (2.5 µM)
2: EGFR | EGFR_L858R
0: CAMK2A | CAMK2G | CDK10 | CDK2 | CDK5 | CDK6 | CSK | DYRK1B | EGFR_L718V
4: CSF1R | CSNK1D | DYRK2
3: CDK3 | CHEK2 | CSNK1A1 | EGFR_G719S | EGFR_G719S_T790M

C=CC(=O)N1CC[C@H](n2nc(C#Cc3cc(OC)cc(OC)c3)c3c(N)ncnc32)C1 [Futibatinib] (10 µM)
0: CAMK2A | CAMK2G | CDK10 | CDK2 | CDK3 | CDK5 | CDK6 | CHEK2 | CSF1R | CSK | CSNK1A1 | CSNK1D | DDR1 | DYRK1B | DYRK2 | EGFR | EGFR_G719S | EGFR_G719S_T790M | EGFR_L718V | EGFR_L858R

CCc1nc(-c2cccc(C)c2)c(-c2ccnc(NC(=O)c3ccccc3)c2)s1 (10 µM)
0: CAMK2A | CAMK2G | CDK10 | CDK2 | CDK3 | CDK5 | CDK6 | CHEK2 | CSF1R | CSK | CSNK1D | DDR1 | DYRK1B | DYRK2

CCCCC[C@H](O)CC(=O)CCc1ccc(O)c(OC)c1 [[6]-Gingerol] (10 µM)
0: CAMK2A | CAMK2G | CDK10 | CDK2 | CDK3 | CDK5 | CDK6 | CHEK2 | CSF1R | CSK | CSNK1A1 | CSNK1D | DDR1 | DYRK1B | DYRK2 | EGFR_G719S | EGFR_G719S_T790M | EGFR_L718V | EGFR_L858R

C[C@H](NC(=O)/C(C#N)=C/c1cccc(Br)n1)c1ccccc1 (2.5 µM)
0: CAMK2A | CAMK2G | CDK10 | CDK2 | CDK3 | CDK5 | CDK6 | CHEK2 | CSF1R | CSK | CSNK1A1 | CSNK1D | DDR1 | DYRK1B | DYRK2 | EGFR | EGFR_G719S | EGFR_G719S_T790M | EGFR_L718V | EGFR_L858R

Cn1nc(C(C)(C)C)cc1NC(=O)Nc1ccc(Oc2ccncc2)cc1 (10 µM)
1: CSF1R
3: DDR1 | EGFR_G719S_T790M
0: CAMK2A | CAMK2G | CDK10 | CDK2 | CDK3 | CDK5 | CDK6 | CHEK2 | CSK | CSNK1A1 | CSNK1D | DYRK1B | EGFR | EGFR_G719S | EGFR_L718V | EGFR_L858R
4: DYRK2

O=C1Nc2ccccc2/C1=C/c1ccc(F)cc1 (10 µM)
0: CAMK2A | CAMK2G | CDK10 | CDK2 | CDK3 | CDK5 | CDK6 | CHEK2 | CSF1R | CSK | CSNK1A1 | CSNK1D | DDR1 | DYRK1B | DYRK2 | EGFR | EGFR_G719S | EGFR_G719S_T790M | EGFR_L718V | EGFR_L858R

COc1cc(Oc2ccnc3cc(OC)c(OC)cc23)ccc1NC(=O)NC(C)c1nccs1 (centres undefined) (2.5 µM)
0: CAMK2A | CAMK2G | CDK10 | CDK2 | CDK3 | CDK5 | CDK6 | CHEK2 | CSF1R | CSK | CSNK1A1 | CSNK1D | DDR1 | DYRK1B | DYRK2 | EGFR | EGFR_G719S | EGFR_G719S_T790M | EGFR_L718V | EGFR_L858R

CC(C)c1ccc2oc3nc(N)c(C(=O)O)cc3c(=O)c2c1 [Amlexanox] (10 µM)
0: CAMK2A | CAMK2G | CDK10 | CDK2 | CDK3 | CDK5 | CDK6 | CHEK2 | CSF1R | CSK | CSNK1A1 | CSNK1D | DDR1 | DYRK1B | DYRK2 | EGFR | EGFR_G719S | EGFR_G719S_T790M | EGFR_L718V | EGFR_L858R

CNC(=O)c1ccccc1Nc1nc(Nc2ccc(N3CCOCC3)cc2OC)ncc1Cl (2.5 µM)
0: CAMK2A | CAMK2G | CDK10 | CDK2 | CDK3 | CDK5 | CDK6 | CHEK2 | CSF1R | CSK | CSNK1D | DDR1 | DYRK1B | DYRK2

COc1cc(F)cc([C@@H](CO)NC(=O)[C@@H](C)N2Cc3ccc(-c4nc(NC5CCOCC5)ncc4Cl)cc3C2=O)c1 [ERK1/2 inhibitor 2] (10 µM)
0: CAMK2A | CAMK2G | CDK10 | CDK2 | CDK3 | CDK5 | CDK6 | CHEK2 | CSF1R | CSK | CSNK1A1 | CSNK1D | DDR1 | DYRK1B | DYRK2 | EGFR | EGFR_G719S | EGFR_G719S_T790M | EGFR_L718V | EGFR_L858R

C=CC(=O)Nc1cccc(Nc2nc(Nc3ccc(OCCOC)cc3)ncc2F)c1 [Spebrutinib] (10 µM)
0: CAMK2A | CAMK2G | CDK10 | CDK2 | CDK3 | CDK5 | CDK6 | CHEK2 | CSF1R | CSK | CSNK1A1 | CSNK1D | DDR1 | DYRK1B | DYRK2 | EGFR | EGFR_G719S | EGFR_G719S_T790M | EGFR_L718V | EGFR_L858R

COc1ccc(Oc2cc(NCCC(F)(F)F)c3ncc(-c4ccc(C(=O)NC5CC5)c(C)c4)n3n2)c(F)c1F (2.5 µM)
0: CAMK2A | CAMK2G | CDK10 | CDK2 | CDK3 | CDK5 | CDK6 | CHEK2 | CSF1R | CSK | CSNK1A1 | CSNK1D | DDR1 | DYRK1B | DYRK2 | EGFR | EGFR_G719S | EGFR_G719S_T790M | EGFR_L718V | EGFR_L858R

C/C=C(/C)C(=O)O[C@H]1Cc2cc3ccc(=O)oc3cc2OC1(C)C [Decursinol angelate] (10 µM)
0: CAMK2A | CAMK2G | CDK10 | CDK2 | CDK3 | CDK5 | CDK6 | CHEK2 | CSF1R | CSK | CSNK1A1 | CSNK1D | DDR1 | DYRK1B | DYRK2 | EGFR | EGFR_G719S | EGFR_G719S_T790M | EGFR_L718V | EGFR_L858R

Cc1c(C(=O)N2CCOc3ccc(-c4ccc(N)nc4)cc3C2)ccc(S(C)(=O)=O)c1F (10 µM)
2: DYRK2
0: CAMK2A | CAMK2G | CDK10 | CDK2 | CDK3 | CDK5 | CDK6 | CHEK2 | CSF1R | CSK | CSNK1A1 | DDR1 | DYRK1B

CNC(=O)c1cccc2cc(Oc3ccnc4cc(OCC5(N)CC5)c(OC)cc34)ccc12 [Lucitanib] (10 µM)
0: CAMK2A | CAMK2G | CDK10 | CDK3 | CDK5 | CDK6 | CHEK2 | CSF1R | CSK | CSNK1A1 | CSNK1D | DYRK1B | DYRK2 | EGFR | EGFR_G719S | EGFR_G719S_T790M | EGFR_L718V | EGFR_L858R
1: DDR1
